Measured values from PMC12822480.
Results are given in words; binding and its absence hold for the method and conditions named. Binding seen in cells or lysates may run through a third protein. Some binding calls cover weakened binding; strength is not graded here.

Biological target: T1, interleukin‐11 (IL‐11) (human (endogenous in 231‐LC cells)) (UniProt P20809)
T1 sequence: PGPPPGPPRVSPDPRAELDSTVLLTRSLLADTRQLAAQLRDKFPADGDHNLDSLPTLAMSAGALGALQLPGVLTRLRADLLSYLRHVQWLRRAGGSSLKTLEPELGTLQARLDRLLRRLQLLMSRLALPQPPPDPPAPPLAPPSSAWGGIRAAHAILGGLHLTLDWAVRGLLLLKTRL
Assay: co-IP; concentrated serum‐free conditioned medium of 231‐LC cells (10 kDa filter) incubated with IL‐11 antibody or IgG isotype control in IP buffer at 4 °C for 12 h; protein A/G agarose beads for 2 h at room temperature; eluate analysed by Western blot

B1: soluble IL‐11 receptor (sIL‐11R) (receptor, UniProt Q14626 24-370)
chain: SPCPQAWGPPGVQYGQPGRSVKLCCPGVTAGDPVSWFRDGEPKLLQGPDSGLGHELVLAQADSTDEGTYICQTLDGALGGTVTLQLGYPPARPVVSCQAADYENFSCTWSPSQISGLPTRYLTSYRKKTVLGADSQRRSPSTGPWPCPQDPLGAARCVVHGAEFWSQYRINVTEVNPLGASTRLLDVSLQSILRPDPPQGLRVESVPGYPRRLRASWTYPASWPCQPHFLLKFRLQYRPAQHPAWSTVEPAGLEEVITDAVAGLPHAVRVSARDFLDAGTWSTWSPEAWGTPSTGTIPKEIPAWGQLHTQPEVEPQVDSPAPPRPSLQPHPRLLDHRDSVEQVAVLA
B1 was tested, and the binding was “binds”.
